In paper PMC4889068:

Target: Hsp90 purified from HeLa cells (Enzo Life Sciences) (human (endogenous in HeLa))
Test: ELISA; competition: Hsp90 coated on plate; constant 1.33 μM CacyBP/SIP alone or with increasing Sgt1 (0 to 1.33 μM, Sgt1A and Sgt1B 1:1); detected with anti-CacyBP/SIP antibody; both purified

binding: binds
B1: recombinant Sgt1A (human) (protein, UniProt Q9Y2Z0-2 1-333)
chain: MAAAAAGTATSQRFFQSFSDALIDEDPQAALEELTKALEQKPDDAQYYCQRAYCHILLGNYCVAVADAKKSLELNPNNSTAMLRKGICEYHEKNYAAALETFTEGQKLDSADANFSVWIKRCQEAQNGSESEVWTHQSKIKYDWYQTESQVVITLMIKNVQKNDVNVEFSEKELSALVKLPSGEDYNLKLELLHPIIPEQSTFKVLSTKIEIKLKKPEAVRWEKLEGQGDVPTPKQFVADVKNLYPSSSPYTRNWDKLVGEIKEEEKNEKLEGDAALNRLFQQIYSDGSDEVKRAMNKSFMESGGTVLSTNWSDVGKRKVEINPPDDMEWKKY

Results are given in words; binding and its absence hold for the method and conditions named. Binding can be weak; no strength is given.
